According to the supplement of paper PMC10849652:
This is one part of the list.

Protein sequences, listed by entry. Tags and fused reporters are not part of them. Lines headed by an entry give the natural chain unless they say otherwise; changes in a name come on top.
UniProt P43490: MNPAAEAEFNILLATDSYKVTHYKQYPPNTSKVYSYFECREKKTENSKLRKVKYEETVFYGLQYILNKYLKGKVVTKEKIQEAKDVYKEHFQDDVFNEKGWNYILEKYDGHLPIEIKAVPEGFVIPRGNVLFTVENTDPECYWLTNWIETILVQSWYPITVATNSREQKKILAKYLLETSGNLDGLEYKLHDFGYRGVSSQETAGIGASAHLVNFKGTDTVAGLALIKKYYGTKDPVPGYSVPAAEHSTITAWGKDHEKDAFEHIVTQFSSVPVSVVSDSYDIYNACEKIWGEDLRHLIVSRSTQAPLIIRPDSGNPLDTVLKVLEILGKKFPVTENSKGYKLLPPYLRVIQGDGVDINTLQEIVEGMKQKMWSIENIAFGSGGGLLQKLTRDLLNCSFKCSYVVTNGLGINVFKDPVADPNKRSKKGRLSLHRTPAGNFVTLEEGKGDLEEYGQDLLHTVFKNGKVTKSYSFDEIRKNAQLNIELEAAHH
UniProt Q8TBE9: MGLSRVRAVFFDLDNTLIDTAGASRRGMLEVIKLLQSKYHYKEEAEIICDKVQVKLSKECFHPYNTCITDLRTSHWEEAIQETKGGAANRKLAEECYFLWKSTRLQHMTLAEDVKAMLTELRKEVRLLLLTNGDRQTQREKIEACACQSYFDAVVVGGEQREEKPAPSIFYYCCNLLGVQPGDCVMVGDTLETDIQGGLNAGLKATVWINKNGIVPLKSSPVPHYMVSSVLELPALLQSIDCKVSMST
UniProt Q99733: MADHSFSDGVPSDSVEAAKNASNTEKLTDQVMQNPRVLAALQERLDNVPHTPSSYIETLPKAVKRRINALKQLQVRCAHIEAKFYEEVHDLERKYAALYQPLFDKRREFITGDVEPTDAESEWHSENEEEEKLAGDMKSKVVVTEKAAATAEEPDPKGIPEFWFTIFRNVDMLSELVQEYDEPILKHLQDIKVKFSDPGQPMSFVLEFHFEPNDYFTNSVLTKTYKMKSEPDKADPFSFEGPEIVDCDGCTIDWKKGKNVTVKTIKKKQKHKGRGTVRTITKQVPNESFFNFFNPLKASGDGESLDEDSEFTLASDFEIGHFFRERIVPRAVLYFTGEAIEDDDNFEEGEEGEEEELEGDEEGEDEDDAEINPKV
UniProt Q969V5: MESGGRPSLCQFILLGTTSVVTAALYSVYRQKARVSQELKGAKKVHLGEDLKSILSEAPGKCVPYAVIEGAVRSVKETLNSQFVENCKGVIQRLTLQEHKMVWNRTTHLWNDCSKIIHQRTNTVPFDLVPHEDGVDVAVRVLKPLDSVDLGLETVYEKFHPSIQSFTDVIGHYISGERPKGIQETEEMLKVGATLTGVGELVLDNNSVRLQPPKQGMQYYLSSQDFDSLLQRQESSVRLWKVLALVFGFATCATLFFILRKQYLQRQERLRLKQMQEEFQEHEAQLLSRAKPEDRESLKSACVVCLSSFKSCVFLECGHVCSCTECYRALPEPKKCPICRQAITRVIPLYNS
UniProt Q9UHQ1: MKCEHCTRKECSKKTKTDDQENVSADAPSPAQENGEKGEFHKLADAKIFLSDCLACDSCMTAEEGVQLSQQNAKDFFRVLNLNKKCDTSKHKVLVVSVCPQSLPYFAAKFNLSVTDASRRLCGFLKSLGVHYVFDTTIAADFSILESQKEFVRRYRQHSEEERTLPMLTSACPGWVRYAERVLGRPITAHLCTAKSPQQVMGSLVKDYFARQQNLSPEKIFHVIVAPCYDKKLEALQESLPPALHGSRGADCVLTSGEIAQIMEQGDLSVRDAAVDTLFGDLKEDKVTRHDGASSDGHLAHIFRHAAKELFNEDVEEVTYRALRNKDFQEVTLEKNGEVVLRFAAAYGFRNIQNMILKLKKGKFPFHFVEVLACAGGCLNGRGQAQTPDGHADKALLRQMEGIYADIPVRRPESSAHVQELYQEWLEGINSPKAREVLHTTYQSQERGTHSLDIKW
UniProt Q5VZE5: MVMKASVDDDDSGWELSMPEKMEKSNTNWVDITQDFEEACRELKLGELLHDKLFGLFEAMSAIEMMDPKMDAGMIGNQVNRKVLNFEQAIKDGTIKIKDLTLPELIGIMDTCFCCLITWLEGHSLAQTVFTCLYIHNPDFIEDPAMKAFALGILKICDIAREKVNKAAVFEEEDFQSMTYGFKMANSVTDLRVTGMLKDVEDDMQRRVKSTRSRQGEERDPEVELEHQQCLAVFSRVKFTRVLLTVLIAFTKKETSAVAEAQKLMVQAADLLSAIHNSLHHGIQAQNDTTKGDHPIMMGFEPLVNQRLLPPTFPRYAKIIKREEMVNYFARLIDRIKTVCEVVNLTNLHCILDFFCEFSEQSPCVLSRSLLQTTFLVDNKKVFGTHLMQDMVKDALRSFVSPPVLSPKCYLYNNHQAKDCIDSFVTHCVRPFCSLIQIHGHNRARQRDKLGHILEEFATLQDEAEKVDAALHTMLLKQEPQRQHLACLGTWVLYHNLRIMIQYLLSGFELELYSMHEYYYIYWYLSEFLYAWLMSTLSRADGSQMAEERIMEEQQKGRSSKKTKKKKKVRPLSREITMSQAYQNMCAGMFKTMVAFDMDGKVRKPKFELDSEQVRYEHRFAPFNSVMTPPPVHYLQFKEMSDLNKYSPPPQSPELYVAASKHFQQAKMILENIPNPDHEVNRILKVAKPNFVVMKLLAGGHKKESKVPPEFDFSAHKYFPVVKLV
UniProt P35579, whole entry, looked up: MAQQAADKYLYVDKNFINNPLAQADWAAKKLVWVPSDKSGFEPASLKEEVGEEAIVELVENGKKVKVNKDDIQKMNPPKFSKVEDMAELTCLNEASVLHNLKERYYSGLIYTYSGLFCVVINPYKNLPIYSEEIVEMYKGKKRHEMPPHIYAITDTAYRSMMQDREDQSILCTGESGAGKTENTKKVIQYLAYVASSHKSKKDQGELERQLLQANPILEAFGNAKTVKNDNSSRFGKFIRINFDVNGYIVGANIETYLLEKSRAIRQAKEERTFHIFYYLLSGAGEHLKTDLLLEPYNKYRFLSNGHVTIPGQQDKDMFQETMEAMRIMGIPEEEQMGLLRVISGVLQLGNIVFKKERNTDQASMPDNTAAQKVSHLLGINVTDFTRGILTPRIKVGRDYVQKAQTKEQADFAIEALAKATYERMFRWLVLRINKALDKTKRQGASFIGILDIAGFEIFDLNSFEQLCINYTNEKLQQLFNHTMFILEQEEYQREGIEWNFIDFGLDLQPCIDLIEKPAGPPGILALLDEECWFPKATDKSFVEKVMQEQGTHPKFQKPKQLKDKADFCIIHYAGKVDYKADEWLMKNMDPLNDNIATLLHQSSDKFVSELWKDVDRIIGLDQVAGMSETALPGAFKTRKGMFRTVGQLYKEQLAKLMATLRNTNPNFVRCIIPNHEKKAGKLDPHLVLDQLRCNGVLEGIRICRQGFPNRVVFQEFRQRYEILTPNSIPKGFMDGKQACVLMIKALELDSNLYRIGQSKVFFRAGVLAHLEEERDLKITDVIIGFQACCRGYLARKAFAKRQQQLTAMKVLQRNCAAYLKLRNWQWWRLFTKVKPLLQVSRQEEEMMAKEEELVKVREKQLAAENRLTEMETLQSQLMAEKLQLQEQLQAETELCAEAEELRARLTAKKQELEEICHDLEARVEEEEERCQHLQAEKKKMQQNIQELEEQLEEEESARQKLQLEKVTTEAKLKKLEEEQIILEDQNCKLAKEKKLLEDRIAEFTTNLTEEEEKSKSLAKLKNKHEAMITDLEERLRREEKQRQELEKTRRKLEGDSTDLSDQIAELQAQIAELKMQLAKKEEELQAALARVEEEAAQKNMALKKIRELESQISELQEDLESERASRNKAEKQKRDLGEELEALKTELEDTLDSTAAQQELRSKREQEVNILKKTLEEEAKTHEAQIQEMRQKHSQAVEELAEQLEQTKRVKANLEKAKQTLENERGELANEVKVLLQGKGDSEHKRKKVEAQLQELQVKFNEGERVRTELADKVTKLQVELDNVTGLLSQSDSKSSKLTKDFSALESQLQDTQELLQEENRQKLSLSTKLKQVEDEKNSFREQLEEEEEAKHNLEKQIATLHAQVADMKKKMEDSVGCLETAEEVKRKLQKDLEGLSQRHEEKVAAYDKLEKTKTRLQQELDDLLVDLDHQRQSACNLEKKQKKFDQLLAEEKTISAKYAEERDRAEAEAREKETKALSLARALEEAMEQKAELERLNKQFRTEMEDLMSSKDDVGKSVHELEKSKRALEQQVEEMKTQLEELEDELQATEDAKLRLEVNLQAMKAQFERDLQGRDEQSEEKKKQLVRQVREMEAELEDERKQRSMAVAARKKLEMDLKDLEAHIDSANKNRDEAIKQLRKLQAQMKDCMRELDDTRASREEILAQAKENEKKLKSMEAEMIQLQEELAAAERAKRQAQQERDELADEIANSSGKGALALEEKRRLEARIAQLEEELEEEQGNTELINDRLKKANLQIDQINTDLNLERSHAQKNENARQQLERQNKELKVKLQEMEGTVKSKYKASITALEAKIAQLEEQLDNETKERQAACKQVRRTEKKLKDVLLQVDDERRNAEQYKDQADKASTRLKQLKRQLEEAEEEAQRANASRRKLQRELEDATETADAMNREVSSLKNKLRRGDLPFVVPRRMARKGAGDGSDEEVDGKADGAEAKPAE
UniProt Q99417: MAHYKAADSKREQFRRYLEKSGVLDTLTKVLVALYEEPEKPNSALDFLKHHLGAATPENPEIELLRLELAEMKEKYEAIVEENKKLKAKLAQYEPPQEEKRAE
UniProt P19338, whole entry, looked up: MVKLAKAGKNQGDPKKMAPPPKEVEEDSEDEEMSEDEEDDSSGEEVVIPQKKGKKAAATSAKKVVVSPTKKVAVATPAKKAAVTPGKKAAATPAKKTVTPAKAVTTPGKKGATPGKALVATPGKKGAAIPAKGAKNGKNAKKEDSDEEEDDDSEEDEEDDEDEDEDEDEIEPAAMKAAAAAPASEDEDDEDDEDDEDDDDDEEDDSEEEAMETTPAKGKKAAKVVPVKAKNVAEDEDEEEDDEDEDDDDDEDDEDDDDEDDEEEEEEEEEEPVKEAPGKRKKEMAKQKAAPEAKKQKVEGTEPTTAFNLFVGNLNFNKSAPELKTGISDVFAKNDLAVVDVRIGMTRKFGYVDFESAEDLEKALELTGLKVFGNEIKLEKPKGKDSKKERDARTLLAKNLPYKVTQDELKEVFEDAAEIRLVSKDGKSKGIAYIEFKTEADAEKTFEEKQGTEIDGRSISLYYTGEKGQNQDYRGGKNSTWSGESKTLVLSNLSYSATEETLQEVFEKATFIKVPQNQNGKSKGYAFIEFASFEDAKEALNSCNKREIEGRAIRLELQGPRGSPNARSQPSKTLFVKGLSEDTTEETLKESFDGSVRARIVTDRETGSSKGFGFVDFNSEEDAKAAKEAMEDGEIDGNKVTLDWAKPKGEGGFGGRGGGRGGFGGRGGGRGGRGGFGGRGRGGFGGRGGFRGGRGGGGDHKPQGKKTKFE
UniProt Q15003, whole entry, looked up: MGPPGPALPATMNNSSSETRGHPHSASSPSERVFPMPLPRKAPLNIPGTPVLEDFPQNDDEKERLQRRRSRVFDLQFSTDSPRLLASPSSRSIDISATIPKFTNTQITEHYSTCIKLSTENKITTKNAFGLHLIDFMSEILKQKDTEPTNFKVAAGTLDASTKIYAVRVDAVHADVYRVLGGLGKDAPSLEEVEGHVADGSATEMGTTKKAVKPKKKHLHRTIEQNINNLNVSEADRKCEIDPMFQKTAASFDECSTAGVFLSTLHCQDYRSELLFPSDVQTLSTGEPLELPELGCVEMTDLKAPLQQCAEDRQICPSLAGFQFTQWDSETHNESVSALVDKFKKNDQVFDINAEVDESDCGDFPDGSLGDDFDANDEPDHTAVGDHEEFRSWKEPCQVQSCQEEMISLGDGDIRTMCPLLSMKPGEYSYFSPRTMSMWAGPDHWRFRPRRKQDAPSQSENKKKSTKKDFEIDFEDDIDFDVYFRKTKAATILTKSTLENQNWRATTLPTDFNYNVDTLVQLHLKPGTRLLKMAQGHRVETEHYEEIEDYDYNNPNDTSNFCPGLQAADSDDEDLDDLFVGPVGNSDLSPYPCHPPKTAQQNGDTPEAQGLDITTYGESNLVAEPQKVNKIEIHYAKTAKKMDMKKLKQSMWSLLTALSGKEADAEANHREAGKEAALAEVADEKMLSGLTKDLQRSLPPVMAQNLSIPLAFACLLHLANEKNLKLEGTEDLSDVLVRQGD
UniProt Q03426, whole entry, looked up: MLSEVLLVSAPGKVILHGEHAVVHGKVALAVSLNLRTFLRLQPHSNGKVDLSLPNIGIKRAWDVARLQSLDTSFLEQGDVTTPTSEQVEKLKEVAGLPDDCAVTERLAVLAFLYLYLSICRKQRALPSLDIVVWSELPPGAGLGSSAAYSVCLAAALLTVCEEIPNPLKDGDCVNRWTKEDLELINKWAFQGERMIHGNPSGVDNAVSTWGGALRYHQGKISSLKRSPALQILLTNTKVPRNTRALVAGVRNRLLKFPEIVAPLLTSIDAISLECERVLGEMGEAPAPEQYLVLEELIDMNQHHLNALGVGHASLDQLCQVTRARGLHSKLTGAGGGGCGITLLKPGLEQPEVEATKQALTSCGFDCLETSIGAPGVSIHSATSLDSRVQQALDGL

Legend:
Test in all cases: log2 fold change, soluble protein after heating vs DMSO (PISA); higher = thermal stabilisation; K562 lysate, 10 uM; active = over 0.2 and 3.5 SD of the protein, either way, in both replicates (recomputed)
[1] = compound: C#Cc1cccc(Nc2ncnc3cc(OCCOC)c(OCCOC)cc23)c1 [erlotinib]
Procedure, shortened: (§1)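 Log-two fold change in thermal stability relative to solvent controls is reported from duplicates. For each sample, crude K562 extract from dounce-homogenised pellets in PBS pH 7.4 with 1 mM MgCl2, at 1 mg/mL protein, was treated with 10 μM compound for 30 min. Aliquots heated for 3 min across 48°C-58°C were pooled, brought to 0.5% NP-40 at 4°C and cleared at 21,000xg for 90 min. The supernatant was quantified by TMTpro 16plex LC-MS/MS with channel sums equalised.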

[2] = compound: C/C(=N\NC(=O)C1=CC(=CC=C1)S(=O)(=O)N2CCOCC2)/C3=C(C=CC(=C3)Cl)O
Procedure, shortened: as §1

[3] = compound: C1=CC(=CC=C1C2=NC3=C(N2)C=C(C=C3)C(=O)N)OC4=CC=C(C=C4)Cl
Procedure, shortened: as §1

[4] = compound: C1=CC2=C(C=CC(=C2)/C=C\3/C(=O)NC(=NCC4=CC=CS4)S3)N=C1
Procedure, shortened: as §1

[5] = compound: C1=CC2=NC=CN=C2C=C1/C=C/3\C(=O)NC(=O)S3
Procedure, shortened: as §1

[6] = compound: C1=CC=C(C=C1)C2=NC(=C(N2)C3=CC=NC=C3)C4=CC(=C(C=C4)Cl)O
Procedure, shortened: as §1

[7] = compound: C1=CC=C2C(=C1)C3=NNC4=CC=CC(=C43)C2=O
Procedure, shortened: as §1

[8] = compound: C1CCN(C1)C(=O)NC2=CC=CC(=C2)NC3=NC=C(C(=N3)NCCC4=CN=CN4)Br
Procedure, shortened: as §1

[9] = compound: C1CN(CCC1(CC2=CC=C(C=C2)Cl)N)C3=NC=NC4=C3C=CN4
Procedure, shortened: as §1

[10] = compound: C1COCCN1CCN2C3=CC=CC=C3N=C2NC(=O)C4=CC(=CC=C4)[N+](=O)[O-] [IRAK-1-4 Inhibitor I]
Procedure, shortened: as §1

[11] = compound: C=CC(=O)N1CCC[C@@H](n2nc(-c3ccc(Oc4ccccc4)cc3)c3c(N)ncnc32)C1 [ibrutinib]
Procedure, shortened: as §1

[12] = compound: CC(=O)c1cnc2ccc(-c3cc(Cl)c(O)c(Cl)c3)nc2c1N[C@H]1CC[C@H](CN(C)C)CC1
Procedure, shortened: as §1

[13] = compound: CC(C)(C)Cn1c(N)nc2ccc(-c3[nH]c(C(C)(C)C)nc3-c3ccc(F)cc3)nc21 [ralimetinib]
Procedure, shortened: as §1

[14] = compound: CC(C)(O)CC(=O)NCCn1ccc2ncnc(Nc3ccc(Oc4cccc(C(F)(F)F)c4)c(Cl)c3)c21
Procedure, shortened: as §1

[15] = compound: CC(C)C1=C2N=C(C=C(N2N=C1)NCC3=CC=CC=C3)NCCCCCCN
Procedure, shortened: as §1

[16] = compound: CC1=C(C(CC(=O)N1)C2=CC=C(C=C2)C(F)(F)F)C(=O)NC3=C(C=C4C(=C3)C=NN4)F
Procedure, shortened: as §1

[17] = compound: CC1=C(C2=C(C=C1)C(=O)C3=CC=CC=C3N2CCCN)C
Procedure, shortened: as §1

[18] = compound: CC1=C(C=C(C=C1)NC(=O)C2=CC(=CC=C2)C(C)(C)C#N)NC3=CC4=C(C=C3)N=CN(C4=O)C
Procedure, shortened: as §1

[19] = compound: CC1=C(C=C(C=C1)NC(=O)C2=CC(=CC=C2)N(C)C)NC(=O)C3=CC=C(C=C3)O
Procedure, shortened: as §1

[20] = compound: CC1=CC=C(C=C1)SC2=C3C=C(SC3=CN=C2)C(=O)N
Procedure, shortened: as §1

Measured: log2 fold change

NAMPT (UniProt P43490)
inactive: [1] -0.035 | [2] 0.08 | [3] -0.027 | [4] -0.001 | [5] -0.004 | [6] 0.097 | [7] 0.097 | [8] 0.043 | [9] -0.036 | [10] -0.03 | [11] 0.04 | [12] 0.008 | [13] -0.014 | [14] 0.006 | [15] -0.019 | [16] -0.023 | [17] 0.055 | [18] 0.012 | [19] -0.032 | [20] -0.001

NANP (UniProt Q8TBE9)
inactive: [1] -0.113 | [2] 0.006 | [3] -0.099 | [4] -0.046 | [5] -0.001 | [6] -0.004 | [7] 0.028 | [8] -0.021 | [9] -0.052 | [10] -0.003 | [11] 0.032 | [12] 0.169 | [13] 0.046 | [14] 0.002 | [15] -0.063 | [16] -0.008 | [17] 0.005 | [18] -0.017 | [19] -0.018 | [20] 0.019

NAP1L4 isoform 2 (UniProt Q99733)
inactive: [1] -0.012 | [2] -0.02 | [3] -0.01 | [4] -0.005 | [5] 0.016 | [6] -0.018 | [7] 0.001 | [8] 0.023 | [9] -0.022 | [10] 0.011 | [11] -0.023 | [12] -0.001 | [13] 0.004 | [14] -0.003 | [15] -0.02 | [16] -0.001 | [17] -0.004 | [18] -0.024 | [19] 0.015 | [20] -0.013

MUL1 (UniProt Q969V5)
inactive: [1] -0.059 | [2] -0.012 | [3] 0.03 | [4] 0.042 | [5] 0.054 | [6] 0.009 | [7] -0.039 | [8] -0.007 | [9] 0.02 | [10] 0.003 | [11] 0.033 | [12] 0.047 | [13] 0.004 | [14] -0.064 | [15] -0.054 | [16] -0.011 | [17] -0.014 | [18] -0.06 | [19] -0.027 | [20] -0.02

NARF (UniProt Q9UHQ1)
inactive: [1] 0.005 | [2] 0.006 | [3] 0.042 | [4] 0.007 | [5] -0.005 | [6] 0.004 | [7] 0.004 | [8] -0.009 | [9] -0.021 | [10] -0.009 | [11] 0.004 | [12] 0.044 | [13] -0.007 | [14] -0.013 | [15] -0.013 | [16] -0.007 | [17] -0.011 | [18] -0.013 | [19] -0.008 | [20] -0.113

NCOR1 (UniProt O75376)
inactive: [1] 0.011 | [2] -0.05 | [3] 0.081 | [4] 0.004 | [5] -0.014 | [6] -0.041 | [7] -0.001 | [8] 0.009 | [9] 0.019 | [10] 0.022 | [11] 0.002 | [12] 0.015 | [13] 0.021 | [14] -0.033 | [15] 0.014 | [16] 0.026 | [17] -0.026 | [18] 0 | [19] -0.006 | [20] -0.005

NBAS (UniProt A2RRP1)
inactive: [1] 0.026 | [2] -0.01 | [3] 0.042 | [4] -0.072 | [5] 0.019 | [6] -0.058 | [7] 0.045 | [8] -0.004 | [9] -0.046 | [10] 0.093 | [11] -0.046 | [12] 0.001 | [13] 0.047 | [14] -0.099 | [15] -0.018 | [16] 0.049 | [17] 0.006 | [18] -0.049 | [19] -0.109 | [20] 0.064

NAA35 (UniProt Q5VZE5)
inactive: [1] 0.017 | [2] 0.054 | [3] -0.023 | [4] 0.115 | [5] 0.021 | [6] 0.01 | [7] -0.002 | [8] -0.026 | [9] -0.025 | [10] 0.013 | [11] -0.005 | [12] -0.017 | [13] 0.006 | [14] 0.042 | [15] -0.01 | [16] -0.008 | [17] -0.004 | [18] -0.006 | [19] 0.017 | [20] -0.02

MYH9 (UniProt P35579)
inactive: [1] -0.015 | [2] -0.018 | [3] 0.026 | [4] -0.006 | [5] -0.015 | [6] -0.002 | [7] -0.001 | [8] 0.003 | [9] 0.003 | [10] -0.001 | [11] -0.012 | [12] -0.018 | [13] -0.002 | [14] -0.024 | [15] 0 | [16] -0.01 | [17] -0.016 | [18] -0.002 | [19] -0.01 | [20] -0.01

MYCBP (UniProt Q99417)
inactive: [1] 0.007 | [2] -0.001 | [3] 0.011 | [4] 0.007 | [5] 0 | [6] 0.019 | [7] 0 | [8] 0.024 | [9] 0.076 | [10] 0.04 | [11] 0.188 | [12] -0.009 | [13] 0.021 | [14] -0.04 | [15] 0.002 | [16] -0.007 | [17] -0.017 | [18] 0.032 | [19] -0.002 | [20] -0.009

NCL (UniProt P19338)
inactive: [1] -0.011 | [2] -0.005 | [3] -0.029 | [4] -0.001 | [5] -0.011 | [6] 0.003 | [7] 0.036 | [8] 0.032 | [9] -0.008 | [10] -0.021 | [11] -0.015 | [12] 0.002 | [13] -0.044 | [14] -0.011 | [15] 0.016 | [16] -0.055 | [17] -0.027 | [18] -0.002 | [19] -0.033 | [20] 0.006

NCOA7 (UniProt Q8NI08)
inactive: [1] 0.036 | [2] 0.014 | [3] 0.029 | [4] -0.021 | [5] -0.025 | [6] 0.02 | [7] -0.042 | [8] -0.031 | [9] 0.031 | [10] -0.007 | [11] 0 | [12] 0.016 | [13] 0.004 | [14] 0.007 | [15] 0.006 | [16] 0.003 | [17] -0.034 | [18] -0.004 | [19] -0.003 | [20] 0.01

NCAPH (UniProt Q15003)
inactive: [1] 0.036 | [2] -0.008 | [3] -0.006 | [4] -0.007 | [5] -0.002 | [6] -0.012 | [7] -0.063 | [8] -0.008 | [9] -0.018 | [10] 0 | [11] 0.006 | [12] 0.016 | [13] -0.002 | [14] -0.031 | [15] -0.013 | [16] 0.003 | [17] -0.001 | [18] -0.003 | [19] 0.012 | [20] 0.011

2 successive records already listed, for reference:
NCOA7 (UniProt Q8NI08)
inactive: [1] 0.036 | [2] 0.014 | [3] 0.029 | [4] -0.021 | [5] -0.025 | [6] 0.02 | [7] -0.042 | [8] -0.031 | [9] 0.031 | [10] -0.007 | [11] 0 | [12] 0.016 | [13] 0.004 | [14] 0.007 | [15] 0.006 | [16] 0.003 | [17] -0.034 | [18] -0.004 | [19] -0.003 | [20] 0.01

NCAPH (UniProt Q15003)
inactive: [1] 0.036 | [2] -0.008 | [3] -0.006 | [4] -0.007 | [5] -0.002 | [6] -0.012 | [7] -0.063 | [8] -0.008 | [9] -0.018 | [10] 0 | [11] 0.006 | [12] 0.016 | [13] -0.002 | [14] -0.031 | [15] -0.013 | [16] 0.003 | [17] -0.001 | [18] -0.003 | [19] 0.012 | [20] 0.011

(next part)

MVK (UniProt Q03426)
inactive: [1] -0.012 | [2] -0.082 | [3] 0.009 | [4] -0.008 | [5] -0.017 | [6] -0.02 | [7] -0.01 | [8] -0.001 | [9] 0.013 | [10] 0.009 | [11] 0.013 | [12] -0.028 | [13] 0 | [14] -0.017 | [15] -0.011 | [16] 0.002 | [17] 0.001 | [18] -0.007 | [19] 0.004 | [20] -0.038

NCAPD3 (UniProt P42695)
inactive: [1] 0.023 | [2] 0.021 | [3] -0.012 | [4] 0.006 | [5] -0.003 | [6] 0.012 | [7] -0.043 | [8] -0.004 | [9] 0.042 | [10] 0.03 | [11] 0.001 | [12] -0.017 | [13] 0.043 | [14] -0.019 | [15] -0.008 | [16] 0.007 | [17] -0.024 | [18] -0.012 | [19] 0.036 | [20] -0.012
